Assay results taken from the supplement of paper PMC3334620.
Over roughly 33,000 sequences, “E-score (-0.5 to 0.5)” has its median near -0.0034; the highest 2% begin near 0.25. Some of the results follow.

What follows are sequences tested against T1, Yap3 (UniProt P38749) (assay: PBM E-score (8-mer binding enrichment) (E-score (-0.5 to 0.5)); higher = stronger / more preferred TF binding). Settings: protein concentration: 100 nM; construct: GST-full length.
T1 sequence: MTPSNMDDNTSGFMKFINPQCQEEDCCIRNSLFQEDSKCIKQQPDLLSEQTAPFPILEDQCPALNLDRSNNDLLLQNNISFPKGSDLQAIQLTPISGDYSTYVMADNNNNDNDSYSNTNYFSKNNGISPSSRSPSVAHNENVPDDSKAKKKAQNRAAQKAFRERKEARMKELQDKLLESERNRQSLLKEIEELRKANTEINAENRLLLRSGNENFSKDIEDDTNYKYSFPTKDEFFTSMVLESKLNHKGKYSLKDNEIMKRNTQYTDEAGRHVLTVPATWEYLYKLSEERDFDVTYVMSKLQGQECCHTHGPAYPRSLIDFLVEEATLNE
Procedure: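 Universal 'all 10-mer' protein binding microarrays (Agilent AMADID 015681) probed with GST-tagged S. cerevisiae TFs (full-length or DBD) made by in vitro transcription/translation (PURExpress), about 100-200 nM. Bound TF was detected with fluorescent anti-GST. Each ungapped 8-mer (which stands for itself and its reverse complement) is scored by the PBM enrichment score (E-score), a modified Wilcoxon-Mann-Whitney statistic from -0.5 to +0.5, computed with the Universal PBM Analysis Suite. Scale: above 0.35 generally sequence-specific binding.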

Sequence | PBM E-score
CACGCTGG | -0.133
CTGACTTC | 0.00453
GGCCCCAC | -0.27
GAGTCGCA | -0.222
CAGGTGAG | -0.0471
GGCAATGA | -0.0444
AAAGTTTC | -0.00036
ACCCTCCA | -0.148
AACGGGCT | -0.0883
GGTGATTA | 0.222
AATCGGCC | -0.0936
CCGATCCA | -0.0131
AGCAACCG | -0.0193
CATCAGGG | -0.0307
GAGTACAA | 0.157
CGGACAAC | 0.0562
CCCGAGCA | -0.0222
ATAGTGAA | 0.0637
GACCCGGA | -0.383
CCAAGTGC | -0.21
GGAATCAA | 0.13
ACACGCCC | -0.0586
CATACCCG | -0.163
GACATGGC | -0.0289
GTGATGAA | -0.00408

Sequence | PBM E-score
GACCGGCA | -0.236
ACCTACAC | -0.132
GTAATGCA | 0.0396
TCCCAAGA | -0.0619
AAAAGCTG | 0.00213
ACAAACAT | 0.0894
CGAACGGA | 0.0704
CACATGAC | 0.0257
AATAATGT | 0.233
ACACGGGT | -0.11
ATTCAGTA | 0.104
CCAGCTAA | -0.126
ATGTCTTA | 0.239
CCAGAGTC | -0.0861
GTAACGCA | 0.0227
CGAGTAAA | 0.0196
AAATATTC | 0.162
GGGTAACC | -0.108
GTCTGGGA | -0.056
AAATAGAA | 0.0373
CCCTTGGC | -0.4
CGCGTTTC | -0.0695
AGCGGTGC | -0.268
GATATTAC | 0.371
AGGTGTAG | -0.00192

Sequence | PBM E-score
AATCGTAT | 0.153
CTAGGCTA | -0.207
AGCGGCAC | -0.18
CATGCAGA | 0.0148
GTTACTGA | 0.106
GGCGTTGA | -0.00354
CAACACAG | -0.0143
TGCTGGAA | -0.0257
GGCCGAGA | 0.0481
ACGCCAAC | -0.0046
ACCTTGCC | -0.0357
AGAACACG | 0.0921
AACGCGTA | 0.106
AAGTCGGT | -0.00755
GTTCGTTA | 0.0613
GCGCTAAA | 0.0819
CGATTTAG | 0.241
GGCACTAC | -0.171
GAGTCGCC | -0.152
GGTACTGA | -0.124
ACTATTCC | 0.157
ATGTGCGG | 0.0165
CGGTTGAG | -0.052
AATTGACC | -0.0226
CTATCCCC | -0.0761

Part of the list above, as labelled records:
CTAGGCTA
  PBM E-score: -0.207
AGCGGCAC
  PBM E-score: -0.18

Next entries follow.

Sequence | PBM E-score
CGCACTAG | -0.0126
ACGAGAAT | 0.192
CAGTATTA | 0.195
AAACTGCA | 0.0201
CGCTCTAG | -0.21
AGGTTCCC | -0.219
CAGGACGA | -0.0732
AACTTTTC | 0.0947
AGGGCCGG | -0.335
AACTGGGC | -0.236
CAACCTAC | 0.0323
AAGTAGGG | 0.148
AACATCCC | -0.0393
GGGACGCA | -0.184
CGAGCGAC | -0.078
AAGCATCT | 0.0365
AACCACTC | 0.0241
AGTAACCA | 0.0583
ACCTATGA | -0.117
ACAATTGT | 0.246
CCCTATCA | -0.0511
CCTACTGC | -0.181
CATCCCTA | 0.018
GTCTACAC | 0.0027
AGAGCTAT | -0.0689

Sequence | PBM E-score
ACCGGAAG | 0.124
AATATCCG | 0.219
GTCAGTAA | 0.0943
AACTAACA | 0.211
ATTAGCCA | 0.104
ACAGGAAA | 0.231
ACCTCGAA | 0.00835
ACATGATA | 0.263
GTCTATCA | 0.0672
CCGGGGAC | -0.359
CTACGTCC | -0.0593
GTACCCCA | -0.161
ACAGGGCT | -0.226
GGGCTTAC | 0.0848
AAGGTGTG | -0.0151
CCCCTCAA | -0.154
ACGTAGCC | -0.277
ATTTAAGA | 0.107
ACATTACC | 0.0935
GCCACCTA | -0.134
AATCCAAA | 0.184
CCCGTGGC | -0.274
AATTCACG | 0.016
CATGGGCA | -0.0447
GTGCAGCA | -0.204

Sequence | PBM E-score
GAATACAC | 0.0407
ACAGAATA | 0.156
GCTGTTCA | 0.0667
AGGTTACA | -0.0016
GCAAGTGA | 0.04
TAGGACAA | 0.175
GGTAACCA | -0.0706
CGGAGTAC | -0.183
CACTACAG | -0.0657
ATGTAGTC | 0.059
TGATCCCA | 0.0451
GCTTTGAA | 0.0381
CGTGGAAC | -0.141
ATTGTGGA | 0.0763
ACGTGAAC | -0.0502
CGCGGGCC | -0.151
GACGGGGA | -0.164
CAGATGCC | -0.126
CCATTCAG | 0.121
GCTTGGTA | 0.147
AGGTCCTA | -0.275
GGATGGGA | -0.00463
CATGGTAC | 0.099
TAGTACAA | 0.104
CCCGCAGG | -0.265

Random excerpt: 4 records from the list.
Sequence | PBM E-score
AACTTTTC | 0.0947
CCAGAGTC | -0.0861
ACATTACC | 0.0935
AAGGTGTG | -0.0151

Carrying on.

Sequence | PBM E-score
CCCGTGAG | -0.134
AAAAGCCA | 0.158
AAAGGCTG | -0.119
CATCGGGG | -0.224
ACGTCAGG | -0.0448
CGCACTTA | -0.0802
TCGGTACA | 0.0158
CACTTCTA | -0.098
CTGATCAC | -0.0878
AAGAACGA | 0.142
AGAAAGTA | 0.147
GGCGCGAC | -0.00599
AAATGCCA | -0.0485
CCGTGCAC | -0.0612
GGTCATAA | 0.144
AAGGCACA | -0.0116
ACGTCAAG | -0.0375
ACCCACTA | 0.158
ACGTGAAA | 0.211
CGCCATTC | -0.113
ATCATGAT | 0.0948
TAGGGTAA | 0.152
